Experimental data taken from paper PMC6355651.
Results are given in words; binding and its absence hold for the method and conditions named. In cells and extracts the contact can be indirect. A yes stands for co-enrichment or nearness to the bait. Other partners may have been found. Blank lines part the entries; values can stand above or below the binder they belong to.

Chains of the proteins cited; added tags and fusions are not shown.
UniProt P35222: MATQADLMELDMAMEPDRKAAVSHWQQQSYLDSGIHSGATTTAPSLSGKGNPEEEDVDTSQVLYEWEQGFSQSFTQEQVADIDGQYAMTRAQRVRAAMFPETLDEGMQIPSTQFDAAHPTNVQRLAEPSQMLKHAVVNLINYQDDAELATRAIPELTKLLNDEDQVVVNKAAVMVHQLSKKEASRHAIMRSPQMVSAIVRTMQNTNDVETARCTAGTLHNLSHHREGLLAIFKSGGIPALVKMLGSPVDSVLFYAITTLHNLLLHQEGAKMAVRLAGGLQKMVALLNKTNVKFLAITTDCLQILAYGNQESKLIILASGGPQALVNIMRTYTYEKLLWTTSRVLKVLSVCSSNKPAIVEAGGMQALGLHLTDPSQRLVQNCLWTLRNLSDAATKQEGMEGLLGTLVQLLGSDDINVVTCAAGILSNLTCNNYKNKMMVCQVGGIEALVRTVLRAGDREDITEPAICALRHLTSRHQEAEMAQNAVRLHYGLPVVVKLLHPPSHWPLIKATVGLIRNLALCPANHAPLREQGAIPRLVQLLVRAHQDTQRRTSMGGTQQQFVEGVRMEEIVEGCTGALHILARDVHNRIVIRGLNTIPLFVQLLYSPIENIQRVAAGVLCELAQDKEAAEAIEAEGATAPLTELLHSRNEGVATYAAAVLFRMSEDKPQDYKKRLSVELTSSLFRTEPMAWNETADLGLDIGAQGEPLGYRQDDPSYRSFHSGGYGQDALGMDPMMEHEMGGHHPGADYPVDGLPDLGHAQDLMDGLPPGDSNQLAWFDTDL

Biological target: FLAG-β-catenin (UniProt P35222)
Test: affinity purification with mass spectrometry; FLAG-β-catenin immunoprecipitated from 293T cell lysates following EGF treatment; Coomassie blue staining and MS peptide sequencing

binding: binds
B1: SHC-binging protein 1 (SHCBP1) (protein, UniProt Q8NEM2 1-672)
chain: MADGSLTGGGLEAAAMAPERMGWAVEQELASLEKGLFQDEDSCSDCSYRDKPGSSLQSFMPEGKTFFPEIFQTNQLLFYERFRAYQDYILADCKASEVQEFTAEFLEKVLEPSGWRAVWHTNVFKVLVEITDVDFAALKAVVRLAEPYLCDSQVSTFTMECMKELLDLKEHRLPLQELWVVFDDSGVFDQTALAIEHVRFFYQNIWRSWDEEEEDEYDYFVRCVEPRLRLHYDILEDRVPSGLIVDYHNLLSQCEESYRKFLNLRSSLSNCNSDSEQENISMVEGLKLYSEMEQLKQKLKLIENPLLRYVFGYQKNSNIQAKGVRSSGQKITHVVSSTMMAGLLRSLLTDRLCQEPGEEEREIQFHSDPLSAINACFEGDTVIVCPGHYVVHGTFSIADSIELEGYGLPDDIVIEKRGKGDTFVDCTGADIKISGIKFVQHDAVEGILIVHRGKTTLENCVLQCETTGVTVRTSAEFLMKNSDLYGAKGAGIEIYPGSQCTLSDNGIHHCKEGILIKDFLDEHYDIPKISMVNNIIHNNEGYGVVLVKPTIFSDLQENAEDGTEENKALKIQTSGEPDVAERVDLEELIECATGKMELCARTDPSEQVEGNCEIVNELIAASTQKGQIKKKRLSELGITQADDNLMSQEMFVGIVGNQFKWNGKGSFGTFLF

binding: binds
B2: NONO (protein, UniProt Q15233 1-471)
chain: MQSNKTFNLEKQNHTPRKHHQHHHQQQHHQQQQQQPPPPPIPANGQQASSQNEGLTIDLKNFRKPGEKTFTQRSRLFVGNLPPDITEEEMRKLFEKYGKAGEVFIHKDKGFGFIRLETRTLAEIAKVELDNMPLRGKQLRVRFACHSASLTVRNLPQYVSNELLEEAFSVFGQVERAVVIVDDRGRPSGKGIVEFSGKPAARKALDRCSEGSFLLTTFPRPVTVEPMDQLDDEEGLPEKLVIKNQQFHKEREQPPRFAQPGSFEYEYAMRWKALIEMEKQQQDQVDRNIKEAREKLEMEMEAARHEHQVMLMRQDLMRRQEELRRMEELHNQEVQKRKQLELRQEEERRRREEEMRRQQEEMMRRQQEGFKGTFPDAREQEIRMGQMAMGGAMGINNRGAMPPAPVPAGTPAPPGPATMMPDGTLGLTPPTTERFGQAATMEGIGAIGGTPPAFNRAAPGAEFAPNKRRRY
